No signal at the amounts used counts as a negative. For some assays here: Construct, isoform or probe ends are uncertain for at least one entry.

Data set [1] addresses human serum albumin (HSA) (Homo sapiens) (UniProt P02768). Briefly: SPR. To be noted: AS2 100 nM, 2 mM MgCl2; SPR (Biacore CM5): PBS pH 7.4, 2 mM MgCl2 (PBSM), 25 °C, 15 µl/min, blank flow cell reference; commercial protein; single-stranded DNA. On the technique in general: SPR reads the build-up and loss of mass on a sensor chip optically.
Another data set relates to fibrinogen. Briefly: SPR. To be noted: AS2 100 nM, 2 mM MgCl2; SPR (Biacore CM5): PBS pH 7.4, 2 mM MgCl2 (PBSM), 25 °C, 15 µl/min, blank flow cell reference; commercial protein; single-stranded DNA.

With “GGGCGGGGCGGACGAGACAGTAAGGGCTGTGGGTGTGGTG [AS2]”, the binding result (in data set [1]; with fibrinogen) was “no binding” in each case.

The record behind these values is publication PMC4897735.
